According to publication doi:10.1101/2020.04.03.023895:
These are yes or no findings as the source states them, for the method shown. Binding seen in cells or lysates may run through a third protein. Binding can be weak; no strength is given.

Amino acid sequences for entries named in this document (tags omitted). A change or cut given only in a name is not applied to a line headed by its entry. Residues count along the entry.
UniProt Q9VVL6: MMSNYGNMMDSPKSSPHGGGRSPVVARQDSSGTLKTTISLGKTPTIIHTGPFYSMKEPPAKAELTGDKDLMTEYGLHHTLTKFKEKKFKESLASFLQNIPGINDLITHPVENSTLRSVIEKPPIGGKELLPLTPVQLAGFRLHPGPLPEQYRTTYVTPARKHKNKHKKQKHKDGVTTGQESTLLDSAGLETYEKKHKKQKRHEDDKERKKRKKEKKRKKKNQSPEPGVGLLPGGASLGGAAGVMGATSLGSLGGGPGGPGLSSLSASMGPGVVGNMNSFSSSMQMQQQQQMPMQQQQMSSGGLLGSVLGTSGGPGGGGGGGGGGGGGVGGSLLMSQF
UniProt P52168, residues 1-291: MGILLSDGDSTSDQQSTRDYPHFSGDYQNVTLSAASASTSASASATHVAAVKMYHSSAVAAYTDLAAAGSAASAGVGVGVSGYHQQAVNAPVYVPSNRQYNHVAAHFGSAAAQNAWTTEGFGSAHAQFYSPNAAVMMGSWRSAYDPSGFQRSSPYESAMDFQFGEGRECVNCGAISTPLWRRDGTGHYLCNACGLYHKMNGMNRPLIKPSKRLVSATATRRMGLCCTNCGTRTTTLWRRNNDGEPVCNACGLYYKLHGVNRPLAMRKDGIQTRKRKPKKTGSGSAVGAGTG

Molecular target: GST-Med19 ΔCORE (Drosophila) (UniProt Q9VVL6)
Experiment: pull-down

binding: binds
Substance: Pnr 1-291 HA tagged form (from UniProt P52168 1-291) (domain or fragment)
